Laboratory results as given in PubChem BioAssay AID1671190 (National Center for Advancing Translational Sciences (NCATS), 2021).
Hit rate of the full screen: of about 580,000 compounds, about 6,100 (1.1%) were called active. Inconclusive results, whose numbers are uncertain, are shown with a selection of clear calls. Calls come from the whole dose curve; as a rule, active = well fitted inhibition curve with a large enough effect; inconclusive = small, poorly fitted or top-dose-only effect, or another doubt; inactive = no such curve, though single readings can be large or run the other way. A potency beside an inconclusive call is a rough fit, not a confirmed value.

By UniProt entry, the sequences of proteins in these tests, tags left out. Where a name states a change or a piece, a line headed by the entry shows the natural chain unless it says otherwise.
UniProt P18054: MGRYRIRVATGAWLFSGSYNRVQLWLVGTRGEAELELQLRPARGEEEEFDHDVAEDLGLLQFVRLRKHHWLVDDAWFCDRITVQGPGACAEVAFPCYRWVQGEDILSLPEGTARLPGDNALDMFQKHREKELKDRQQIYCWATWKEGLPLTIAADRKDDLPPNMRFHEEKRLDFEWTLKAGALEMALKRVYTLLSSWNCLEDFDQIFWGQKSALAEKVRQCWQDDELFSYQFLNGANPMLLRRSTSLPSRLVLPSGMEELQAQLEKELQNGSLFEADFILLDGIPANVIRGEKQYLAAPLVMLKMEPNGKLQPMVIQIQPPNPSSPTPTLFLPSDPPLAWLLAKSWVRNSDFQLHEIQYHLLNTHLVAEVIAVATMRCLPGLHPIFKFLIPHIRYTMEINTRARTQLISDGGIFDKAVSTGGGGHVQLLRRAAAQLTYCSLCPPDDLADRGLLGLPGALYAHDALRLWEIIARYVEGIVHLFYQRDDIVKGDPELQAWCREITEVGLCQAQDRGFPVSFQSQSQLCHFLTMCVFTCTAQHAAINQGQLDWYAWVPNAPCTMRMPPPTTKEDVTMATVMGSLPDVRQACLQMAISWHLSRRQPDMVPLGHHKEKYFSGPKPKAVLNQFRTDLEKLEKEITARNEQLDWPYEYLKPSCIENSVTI

Biological target: Polyunsaturated fatty acid lipoxygenase ALOX12 (Homo sapiens) (UniProt P18054)
Assay: Primary qHTS assay for inhibitors of human arachidonate 12S-lipoxygenase (ALOX12): Round 2
Details: purified 12hLO, xylenol orange hydroperoxide absorbance; activity change, negative = inhibition: at 108 µM (top of the series) unless noted
In short: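 Hydroperoxide product was detected by ferrous iron/xylenol orange as the 573 to 405 nm absorbance ratio. Arachidonic acid at 40 uM (final) was turned over for 30 min at room temperature by 150 nM human 12hLO, pH 7.0 Hepes buffer, after 15 min compound preincubation.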
% is set by controls: 0 for no effect and ±100 for the full control effect; potency is the fitted concentration of half-maximal effect.

How did the Potency turn out when `Cn1cc(SCC(=O)N2CCN(c3ccccc3)CC2)c2ccccc21` was run?
Its Potency is “inactive”.

Which Potency does the source give for `COc1ccccc1-c1cc(C(F)(F)F)nc(S(=O)(=O)CCCC(=O)Nc2cc(OC)c(OC)c(OC)c2)n1` here?
The Potency was inconclusive: 56.2 µM [inhibitor, partial curve, poor fit].

Which Potency does the source give for `COc1cccc(Nc2cnc3ccc(-c4ccccc4OC)nn23)c1` here?
The Potency was “inactive”.

`Cc1cc(C)c2c(=O)cc(CSc3nnc(COc4ccccc4C)n3C)[nH]c2c1` was tested. Which activity change, negative = inhibition did it give?
Its activity change, negative = inhibition is inconclusive: -34.5% [inhibitor].

`S=c1[nH]nc(-c2ccncc2)n1/N=C/c1cccc2ccccc12` was tested. Which Potency did it give?
Its Potency is “inactive”.

`O=c1cc(-c2ccccc2)c2cc(Cl)c3c(c2o1)CN(Cc1ccccc1)CO3` was tested. Which Potency did it give?
Its Potency is inconclusive: 35.5 µM [inhibitor, partial curve, poor fit].

`CN(C)C[C@@H]1CN(c2ncccn2)C[C@H]1NS(=O)(=O)c1ccc(C#N)cc1` was tested. Which Potency did it give?
The Potency was “inactive”.

How did the Potency turn out when `c1ccc(-c2csc(Nc3ccccn3)n2)cc1` was run?
Its Potency is inconclusive: 0.316 µM [inhibitor, single point].

`CCCCCn1c(NC)nc2c1c(=O)[nH]c(=O)n2C` was tested. Which Potency did it give?
The Potency was “inactive”.

`N#CCC(=O)N/N=C/c1c(-c2ccccc2)n(-c2ccccc2)c2ccccc12` was tested. Which Potency did it give?
Its Potency is “inactive”.

`COc1cccc(C(CC(=O)Nc2ccc(F)c(Cl)c2)n2cccc2)c1` (stereo not given) was tested. Which Potency did it give?
The Potency was inconclusive: 22.4 µM [inhibitor, partial curve, poor fit].

For `Cc1cc(-c2ccc(C)c(S(=O)(=O)N(C)c3ccc(C)c(C)c3)c2)on1`, which Potency is on record?
The Potency was inconclusive: 141 µM [inhibitor, partial curve, poor fit].

`COC(=O)N1CCC2(CCCN(Cc3nccs3)C2)CC1` was tested. Which Potency did it give?
Its Potency is inconclusive: 28.2 µM [inhibitor, single point].

`O=C(CCN1CCCCC1)Nc1cccc(Br)c1` was tested. Which Potency did it give?
Its Potency is inconclusive: 79.4 µM [inhibitor, single point].

How did the Potency turn out when `CC(=O)N1CCN(C(=O)C[C@@H]2CCNC[C@@H]2Cc2cc(COc3ccccc3)on2)CC1` was run?
Its Potency is inconclusive: 22.4 µM [inhibitor, full curve, poor fit].

With `COc1cccc(CNCC(O)(c2ccc(Cl)cc2)c2ccc(Cl)cc2)c1` as the compound, how does the Potency read?
The Potency was “inactive”.

`Cc1c(-c2ccccc2)nc(-c2ccccc2)[nH]c1=O` was tested. Which Potency did it give?
Its Potency is inconclusive: 126 µM [inhibitor, partial curve, poor fit].

Which Potency does the source give for `COC(=O)c1ccc(NCC(=O)c2ccccc2)cc1` here?
The Potency was inconclusive: 100 µM [inhibitor, partial curve, poor fit].

For `O=[N+]([O-])c1ccccc1/C=C/C=N/Nc1ccc(Cl)nn1`, which Potency is on record?
Its Potency is “inactive”.

For `COc1ccc(NS(=O)(=O)c2ccc3oc(=O)ccc3c2)cc1`, which Potency is on record?
The Potency was inconclusive: 1.41 µM [inhibitor, full curve, poor fit].

Which Potency does the source give for `CC(C)(C)C(=O)NCCCNc1ccc([N+](=O)[O-])cc1` here?
The Potency was inconclusive: 89.1 µM [inhibitor, single point].

With `Cc1ccc(S(=O)(=O)N2CCOCC2)cc1NC(=O)CN1CCN(c2ccc(O)cc2)CC1` as the compound, how does the Potency read?
The Potency was inconclusive: 79.4 µM [inhibitor, partial curve, poor fit].

`Cc1cc([N+](=O)[O-])ccc1P(=O)(O)c1ccc([N+](=O)[O-])cc1C` was tested. Which Potency did it give?
Its Potency is inconclusive: 100 µM [inhibitor, partial curve, poor fit].

`COc1ccc(C(=O)/C=C/c2ccc(OC)c(COc3ccccc3F)c2)cc1` was tested. Which Potency did it give?
Its Potency is “inactive”.

Which Potency does the source give for `COc1ccc(C(=O)c2sc(Nc3cccc(OC)c3)c(C(=O)Nc3cccc(C)c3C)c2N)cc1` here?
The Potency was “inactive”.

How did the Potency turn out when `COC(=O)C(=O)N1CCN2C(=O)N(Cc3ccc(C)cc3)C[C@H]2C1` was run?
Its Potency is inconclusive: 5.01 µM [inhibitor, full curve].

With `Cc1oc(-c2ccccc2)nc1Cn1cccc1C1=NC(c2ccccc2)CO1` (stereo not given) as the compound, how does the Potency read?
The Potency was “inactive”.

How did the activity change, negative = inhibition turn out when `CC(C)CN(CC(N)=O)CC(=O)N(C)C1(C#N)CCCCC1` was run?
The activity change, negative = inhibition was inconclusive: -30.5% [inhibitor].

How did the Potency turn out when `CC1(C(=O)NS(=O)(=O)C2CC2)CCCN(C(=O)c2cccnc2Oc2ccccc2)C1` (stereo not given) was run?
Its Potency is inconclusive: 112 µM [inhibitor, single point].

`O=C(O)C1CCN(c2ncnc3ccc(-c4ccccc4C(F)(F)F)cc23)CC1` was tested. Which Potency did it give?
Its Potency is inconclusive: 39.8 µM [inhibitor, partial curve].

How did the Potency turn out when `Cc1ccc(CSc2nnnn2C)cc1` was run?
Its Potency is “inactive”.

How did the Potency turn out when `COC(=O)c1ccc(/C=N/Nc2nc(N3CCCCC3)nc(N3CCCCC3)n2)cc1` was run?
The Potency was “inactive”.

For `CN1CCN(C(=O)Cn2nc(-c3cccc([N+](=O)[O-])c3)c3ccccc3c2=O)CC1`, which Potency is on record?
The Potency was inconclusive: 100 µM [inhibitor, single point].

How did the Potency turn out when `COc1ccc(SCC(=O)c2ccc(O)cc2O)cc1` was run?
The Potency was active: 39.8 µM.

How did the Potency turn out when `CN(C)NC(=S)Nc1ccc(Cl)cc1` was run?
Its Potency is “inactive”.

With `N#Cc1ccccc1CN1C(=O)S/C(=C/c2cccn2-c2cccc(C(=O)O)c2)C1=O` as the compound, how does the Potency read?
The Potency was “inactive”.

With `COc1ccc(-c2nnc3c4ccccc4c(C)nn23)cc1S(=O)(=O)N1CCN(CCO)CC1` as the compound, how does the Potency read?
The Potency was inconclusive: 2.51 µM [inhibitor, full curve, poor fit].

With `Cn1c(CN2CCC3(CCNCC3)C2)nc2ccccc21` as the compound, how does the Potency read?
The Potency was inconclusive: 8.91 µM [inhibitor, partial curve, poor fit].

How did the Potency turn out when `C=CCN(CC=C)S(=O)(=O)c1ccc(NC(=S)NC(=O)/C=C/c2cccc3ccccc23)cc1` was run?
Its Potency is inconclusive: 11.2 µM [inhibitor, full curve, poor fit].

How did the Potency turn out when `[O-][n+]1ccccc1SSc1cccc[n+]1[O-]` was run?
The Potency was inconclusive: 3.98 µM [inhibitor, full curve, poor fit].

With `Cc1ccc(NC(=S)NC(=O)c2cccs2)cc1F` as the compound, how does the Potency read?
The Potency was inconclusive: 2.82 µM [inhibitor, full curve, poor fit].

`Cc1ccc(-n2c(N)c(S(=O)(=O)c3ccccc3)c3nc4ccccc4nc32)cc1` was tested. Which Potency did it give?
Its Potency is “inactive”.

How did the Potency turn out when `COc1ccc(CC(=O)N2CC[C@@H](CC(=O)O)[C@@H](CC3=NCCc4cc(OC)c(OC)cc43)C2)cc1` was run?
Its Potency is inconclusive: 20 µM [inhibitor, full curve, poor fit].

Which Potency does the source give for `Cc1nc(N2CCC(C(=O)NCc3ccc4c(c3)OCO4)CC2)cc(C(F)(F)F)n1` here?
Its Potency is inconclusive: 79.4 µM [inhibitor, partial curve].

For `O=C([C@@H]1Cc2ccccc2CN1)N1CCN(Cc2ccccc2)CC1`, which Potency is on record?
Its Potency is inconclusive: 3.55 µM [inhibitor, full curve, poor fit].

Which Potency does the source give for `Fc1ccc(CN2CCn3c(nnc3C3CCCNC3)C2)cc1` (stereo not given) here?
Its Potency is inconclusive: 2.82 µM [inhibitor, full curve, poor fit].

For `S=c1[nH]nc2n1CCCN2`, which Potency is on record?
Its Potency is inconclusive: 141 µM [inhibitor, single point].

`O=C(Nc1ccc2c(c1)OCO2)c1ccccn1` was tested. Which Potency did it give?
Its Potency is active: 5.62 µM.

For `Cc1ccc(NCc2ccccc2-c2nnc(-c3ccccc3Cl)o2)c(C)c1`, which Potency is on record?
Its Potency is inconclusive: 112 µM [inhibitor, single point].

Which Potency does the source give for `OCc1cccc[n+]1Cc1ccccc1` here?
The Potency was inconclusive: 100 µM [inhibitor, single point].

`CCN(CC)c1nc(-c2ccccc2)nc2ccccc12` was tested. Which Potency did it give?
The Potency was “inactive”.

`COc1cccc(Nc2ccc3c(n2)C(C)(C(=O)NC2CCN(C)CC2)CN(C)C3)c1` (stereo not given) was tested. Which Potency did it give?
The Potency was inconclusive: 44.7 µM [inhibitor, partial curve, poor fit].

Which Potency does the source give for `O=C1CSC(=S)N1/N=C/c1ccc2c(c1)OCCO2` here?
Its Potency is inconclusive: 35.5 µM [inhibitor, partial curve].

With `CCC1CCc2sc(C(=O)NCc3csc(-c4cccc(C)c4)n3)cc2C1` (stereo not given) as the compound, how does the Potency read?
Its Potency is inconclusive: 50.1 µM [inhibitor, single point].

Which Potency does the source give for `Cc1ccc(Cl)cc1NC(=O)COc1ncnc2ccc(Br)cc12` here?
The Potency was inconclusive: 44.7 µM [inhibitor, partial curve, poor fit].

How did the Potency turn out when `N#CC(Cc1cccs1)c1nc2ccccc2[nH]1` (stereo not given) was run?
Its Potency is “inactive”.

How did the Potency turn out when `CC(=O)NC(=S)NNC(=O)c1ccc(-c2ccccc2)cc1` was run?
The Potency was inconclusive: 14.1 µM [inhibitor, full curve].

How did the Potency turn out when `CCCNC(=O)CCC(=O)Nc1ncc(-c2ccc(C)cc2)n1C` was run?
Its Potency is “inactive”.

`CCn1c(SCCN2CCCCC2)nnc1-c1ccc(S(=O)(=O)N2CCOCC2)cc1` was tested. Which Potency did it give?
The Potency was inconclusive: 0.0891 µM [inhibitor, full curve, poor fit].

How did the Potency turn out when `O=C(Nc1cccs1)N1CCNc2cnc(Nc3cccc(C(F)(F)F)c3)nc2C1` was run?
Its Potency is “inactive”.

How did the Potency turn out when `COc1ccc(CNc2cc([N+](=O)[O-])ccc2OC)cc1` was run?
Its Potency is inconclusive: 11.2 µM [inhibitor, full curve, poor fit].

How did the Potency turn out when `C=CC[C@@H](CC(=O)N(CCO)Cc1ccccc1)C(=O)N[C@H](COC(=O)[C@@H](CC=C)Cc1ccc(F)cc1)Cc1ccccc1` was run?
The Potency was inconclusive: 112 µM [inhibitor, single point].

Which Potency does the source give for `NC(=N\N=Cc1ccccc1)/C(N)=N/N=Cc1ccccc1` here?
Its Potency is “inactive”.

With `CCCCOc1ccc(Nc2cc(Cl)ccc2C(=O)O)cn1` as the compound, how does the Potency read?
The Potency was inconclusive: 79.4 µM [inhibitor, partial curve, poor fit].

How did the Potency turn out when `O=C(NCCc1ccccc1)c1ccc2c(c1)S(=O)(=O)c1cc(Cl)ccc1C2=O` was run?
The Potency was “inactive”.

`CC(=O)c1ccc(S(=O)(=O)N2CCCCCC2c2cccn2C)cc1` (stereo not given) was tested. Which Potency did it give?
Its Potency is “inactive”.

Which Potency does the source give for `COc1ccc(CNCCC(c2ccccc2)c2ccc(OC(C)C)cc2)cc1OC` (stereo not given) here?
The Potency was “inactive”.

With `Cc1ccsc1C=Nc1ccc(Nc2ccccc2)cc1` as the compound, how does the Potency read?
The Potency was “inactive”.

With `CCOC(=O)CN1C(=O)N[C@@H](c2ccc(Br)cc2)C(C(=O)OC)=C1C` as the compound, how does the Potency read?
Its Potency is inconclusive: 126 µM [inhibitor, single point].

How did the Potency turn out when `O=C(CNC(=O)c1nc[nH]c1C(=O)N1CCNCC1)OCc1ccccc1` was run?
Its Potency is inconclusive: 1.58 µM [inhibitor, full curve, poor fit].
